No constants are given. Whether binding was seen depends on the method and setting. Some binding calls cover weakened binding; strength is not graded here.
Biological target: porcine elastase (porcine) (UniProt P00772)
Assay: band shift assay (SDS-PAGE and Western blot) after adding porcine elastase

The chains behind the UniProt entries cited, without tags or fusion partners. Residues count along the entry.
UniProt P00772, residues 27-266: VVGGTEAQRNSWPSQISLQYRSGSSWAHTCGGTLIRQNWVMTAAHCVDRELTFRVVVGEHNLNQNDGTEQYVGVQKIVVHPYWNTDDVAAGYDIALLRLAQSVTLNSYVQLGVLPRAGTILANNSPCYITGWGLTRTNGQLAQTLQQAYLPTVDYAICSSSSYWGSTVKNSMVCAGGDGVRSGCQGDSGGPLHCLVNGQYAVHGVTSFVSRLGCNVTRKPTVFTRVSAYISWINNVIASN
UniProt P01009, residues 25-418: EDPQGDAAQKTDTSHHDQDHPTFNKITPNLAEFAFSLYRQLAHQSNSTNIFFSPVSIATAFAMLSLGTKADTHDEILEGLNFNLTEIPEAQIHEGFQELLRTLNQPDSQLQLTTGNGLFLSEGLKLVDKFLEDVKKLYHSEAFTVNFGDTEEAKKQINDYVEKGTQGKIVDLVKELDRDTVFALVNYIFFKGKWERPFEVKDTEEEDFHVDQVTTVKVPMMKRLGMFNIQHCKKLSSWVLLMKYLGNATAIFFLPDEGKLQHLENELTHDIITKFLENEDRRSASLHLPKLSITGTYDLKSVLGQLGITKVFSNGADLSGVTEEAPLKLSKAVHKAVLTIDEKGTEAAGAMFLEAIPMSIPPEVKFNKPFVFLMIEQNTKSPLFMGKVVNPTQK

OsrAAT (recombinant human α1-antitrypsin expressed in rice endosperm, Oryza sativa recombinant AAT) (from UniProt P01009 25-418)
binding: binds

human plasma-derived α1-antitrypsin (pAAT) (from UniProt P01009 25-418)
binding: binds

Reference: patent EP2918680A1
